Paper PMC11603163

What was measured:
[1] = target: T1, 3xF-tagged CLSY1 (Arabidopsis) (UniProt Q9M297); assay: affinity purification with mass spectrometry; anti-Flag M2 magnetic beads on 10 g flowers of 3xF-tagged CLSY lines in their clsy mutant backgrounds; elution with 3x-FLAG peptide; compared to non-transgenic wild-type controls
T1 sequence: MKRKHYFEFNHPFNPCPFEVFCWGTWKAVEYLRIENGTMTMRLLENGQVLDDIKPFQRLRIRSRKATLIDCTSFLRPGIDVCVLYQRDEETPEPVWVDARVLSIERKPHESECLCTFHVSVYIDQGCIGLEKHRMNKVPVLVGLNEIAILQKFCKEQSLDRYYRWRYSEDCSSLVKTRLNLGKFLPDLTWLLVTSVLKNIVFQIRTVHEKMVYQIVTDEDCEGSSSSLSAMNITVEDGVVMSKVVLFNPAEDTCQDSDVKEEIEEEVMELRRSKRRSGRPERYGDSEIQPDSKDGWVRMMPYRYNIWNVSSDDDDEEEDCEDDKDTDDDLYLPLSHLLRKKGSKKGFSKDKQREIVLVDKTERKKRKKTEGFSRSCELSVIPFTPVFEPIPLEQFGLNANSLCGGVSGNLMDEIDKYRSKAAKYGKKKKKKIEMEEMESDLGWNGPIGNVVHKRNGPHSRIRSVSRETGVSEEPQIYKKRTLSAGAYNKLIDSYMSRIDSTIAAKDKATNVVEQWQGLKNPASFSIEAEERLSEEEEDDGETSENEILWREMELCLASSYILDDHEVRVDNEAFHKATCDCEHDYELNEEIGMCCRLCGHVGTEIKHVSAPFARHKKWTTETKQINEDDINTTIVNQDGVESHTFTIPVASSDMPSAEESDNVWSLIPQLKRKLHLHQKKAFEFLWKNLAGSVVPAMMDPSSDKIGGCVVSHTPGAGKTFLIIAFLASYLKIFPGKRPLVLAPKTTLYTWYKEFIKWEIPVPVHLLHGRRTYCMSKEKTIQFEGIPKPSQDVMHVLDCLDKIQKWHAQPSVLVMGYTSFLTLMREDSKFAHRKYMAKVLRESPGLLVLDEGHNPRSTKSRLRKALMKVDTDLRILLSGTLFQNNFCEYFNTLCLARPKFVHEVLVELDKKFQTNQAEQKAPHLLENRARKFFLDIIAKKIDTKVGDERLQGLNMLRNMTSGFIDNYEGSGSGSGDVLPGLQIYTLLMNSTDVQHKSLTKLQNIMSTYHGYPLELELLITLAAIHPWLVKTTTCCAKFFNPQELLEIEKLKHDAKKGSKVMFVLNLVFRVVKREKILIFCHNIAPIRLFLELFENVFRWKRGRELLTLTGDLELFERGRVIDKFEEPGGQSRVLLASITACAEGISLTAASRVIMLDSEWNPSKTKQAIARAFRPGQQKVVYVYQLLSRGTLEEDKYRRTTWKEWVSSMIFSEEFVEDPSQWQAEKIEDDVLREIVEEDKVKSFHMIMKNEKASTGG

[2] = target: T2, 3xF-tagged CLSY4 (Arabidopsis) (UniProt Q9LK10); assay: as above
T2 sequence: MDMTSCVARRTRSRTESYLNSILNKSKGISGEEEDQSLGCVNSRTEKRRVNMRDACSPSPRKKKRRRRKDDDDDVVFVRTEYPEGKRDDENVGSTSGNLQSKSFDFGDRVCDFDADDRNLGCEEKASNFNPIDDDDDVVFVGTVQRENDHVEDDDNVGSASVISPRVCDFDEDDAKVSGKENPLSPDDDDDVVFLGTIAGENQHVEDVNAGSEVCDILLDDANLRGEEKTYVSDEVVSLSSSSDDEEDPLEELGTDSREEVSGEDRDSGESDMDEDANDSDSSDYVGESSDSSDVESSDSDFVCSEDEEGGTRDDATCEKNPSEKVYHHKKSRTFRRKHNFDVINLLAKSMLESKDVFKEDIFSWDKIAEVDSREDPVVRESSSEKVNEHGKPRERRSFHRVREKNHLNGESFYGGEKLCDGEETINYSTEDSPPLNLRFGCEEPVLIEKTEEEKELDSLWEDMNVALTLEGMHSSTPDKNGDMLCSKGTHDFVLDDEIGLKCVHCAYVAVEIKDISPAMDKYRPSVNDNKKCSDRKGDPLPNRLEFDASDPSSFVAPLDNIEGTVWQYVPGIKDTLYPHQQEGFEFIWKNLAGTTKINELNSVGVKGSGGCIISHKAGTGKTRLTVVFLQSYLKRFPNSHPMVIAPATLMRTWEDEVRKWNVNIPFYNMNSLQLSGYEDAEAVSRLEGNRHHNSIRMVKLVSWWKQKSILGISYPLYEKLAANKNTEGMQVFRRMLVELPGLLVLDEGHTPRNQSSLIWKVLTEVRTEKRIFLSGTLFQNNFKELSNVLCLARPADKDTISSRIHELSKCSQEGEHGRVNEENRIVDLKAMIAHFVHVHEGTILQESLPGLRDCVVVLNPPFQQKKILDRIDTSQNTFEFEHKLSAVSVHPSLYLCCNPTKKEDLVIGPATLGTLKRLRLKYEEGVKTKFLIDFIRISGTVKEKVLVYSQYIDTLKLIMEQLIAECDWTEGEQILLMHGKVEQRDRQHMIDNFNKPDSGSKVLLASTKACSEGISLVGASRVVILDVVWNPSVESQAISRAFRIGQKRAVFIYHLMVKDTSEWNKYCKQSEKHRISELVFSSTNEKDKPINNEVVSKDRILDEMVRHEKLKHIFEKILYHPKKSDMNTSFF

binding [1]: binds
binding [2]: binds
Molecule: RNA-… RNA POLYMERASE 2 (RDR2) (from UniProt O82504 1-1133)

binding [1]: binds
binding [2]: no binding
B1: SAWADEE HOMEODOMAIN HOMOLOG 1 (SHH1) (protein, UniProt Q9XI47 1-258)
chain: MAASDDSSHYFTEFTLSEIVDMENLYKELGDQSLHKDFCQTVASTFSCSVNRNGKSSITWKQVQIWFQEKLKHQSQPKSKTLPSPPLQIHDLSNPSSYASNASNATFVGNSTFVQTRKGKASDLADLAFEAKSARDYAWYDVSSFLTYRVLRTGELEVRVRFSGFDNRHDEWVNVKTSVRERSIPVEPSECGRVNVGDLLLCFQEREDQALYCDGHVLNIKRGIHDHARCNCVFLVRYELDNTEESLGLERICRRPEE

binding [1]: no binding
binding [2]: no binding
B2: CLASSY 2 (CLSY2) (protein, UniProt F4K493 1-1261)
chain: MKKRGFYNLKHPFDPCPFEFFCSGTWKPVEYMRIEDGMMTIRLLENGYVLEDIRPFQRLRLRSRKAALSDCICFLRPDIDVCVLYRIHEDDLEPVWVDARIVSIERKPHESECSCKINVRIYIDQGCIGSEKQRINRDSVVIGLNQISILQKFYKEQSTDQFYRWRFSEDCTSLMKTRLSLGKFLPDLSWLTVTSTLKSIVFQIRTVQTKMVYQIVTDEEGSSSTLSSMNITLEDGVSLSKVVKFNPADILDDSQDLEIKQETDYYQEEDEVVELRRSKRRNVRPDIYTGCDYEPDTIDGWVRMMPYQFGKCAVNVESDEDEDDNNEDGDTNDDLYIPLSRLFIKKKKTNSREAKPKSRKGEIVVIDKRRVHGFGRKERKSELSVIPFTPVFEPIPLEQFGLNANSFGGGGSFSRSQYFDETEKYRSKGMKYGKKMTEMEEMMEADLCWKGPNQVKSFQKRTSRSSRSVAPKTEDSDEPRVYKKVTLSAGAYNKLIDTYMNNIESTIAAKDEPTSVVDQWEELKKTNFAFKLHGDMEKNLSEDGEGETSENEMLWREMELCLASSYILDDNEVRVDNEAFEKARSGCEHDYRLEEEIGMCCRLCGHVGSEIKDVSAPFAEHKKWTIETKHIEEDDIKTKLSHKEAQTKDFSMISDSSEMLAAEESDNVWALIPKLKRKLHVHQRRAFEFLWRNVAGSVEPSLMDPTSGNIGGCVISHSPGAGKTFLIIAFLTSYLKLFPGKRPLVLAPKTTLYTWYKEFIKWEIPVPVHLIHGRRTYCTFKQNKTVQFNGVPKPSRDVMHVLDCLEKIQKWHAHPSVLVMGYTSFTTLMREDSKFAHRKYMAKVLRESPGLLVLDEGHNPRSTKSRLRKALMKVGTDLRILLSGTLFQNNFCEYFNTLCLARPKFIHEVLMELDQKFKTNHGVNKAPHLLENRARKLFLDIIAKKIDASVGDERLQGLNMLKNMTNGFIDNYEGSGSGSGDALPGLQIYTLVMNSTDIQHKILTKLQDVIKTYFGYPLEVELQITLAAIHPWLVTSSNCCTKFFNPQELSEIGKLKHDAKKGSKVMFVLNLIFRVVKREKILIFCHNIAPIRMFTELFENIFRWQRGREILTLTGDLELFERGRVIDKFEEPGNPSRVLLASITACAEGISLTAASRVIMLDSEWNPSKTKQAIARAFRPGQQKVVYVYQLLSRGTLEEDKYRRTTWKEWVSCMIFSEEFVADPSLWQAEKIEDDILREIVGEDKVKSFHMIMKNEKASTG

Results are given in words; binding and its absence hold for the method and conditions named. In cells and extracts the contact can be indirect. A yes stands for co-enrichment or nearness to the bait. Other partners may have been found. No binding means not detected with the bait. Sequences can lack the tags named with a protein. Each block holds one molecule with its values, some of them ahead of it.
